40 compounds from the supplement of paper PMC3682954 can be followed below.

“And” between values parts separate entries of the source, which are not always exact repeats. Equal entries are not always repeated. Structures can show the parent of a compound that is named as a salt. ± gives the standard deviation of the averaged measurements. Some of the results follow. Repeats are few or missing, and single values can be far off.

The subject of the test is RAW 264.7. The experiment in a line: HMGB1-induced TNF-alpha production relative to HMGB1-stimulated control; higher = more TNF-alpha secretion (less inhibition). To be noted: stimulus: HMGB1 5 ug/ml, 18 h.
Setting [1] is: compound concentration: 1 ug/ml.

For the compound `Cc1cc2ccc(=O)oc2cc1OC[C@@H](O)C(C)(C)O`, the “HMGB1-induced TNF-alpha production” value under setting [1] was determined as 76.6%.
`NCCCC[C@H](N[C@@H](CCc1ccccc1)C(=O)O)C(=O)N1CCC[C@H]1C(=O)O` [Lisinopril]: where the note is “compound concentration: 3 uM”, the “HMGB1-induced TNF-alpha production” value was 86.2 ± 26%.
On the same count and under the same terms, next, `NCCCC[C@H](N[C@@H](CCc1ccccc1)C(=O)O)C(=O)N1CCC[C@H]1C(=O)O`: 87.8%.
Still for that read-out and setting: for `CC(C)(C)NC[C@H](O)COc1nsnc1N1CCOCC1` the value was 90%.
Same read-out and setting: for `CC(C)(C)NC[C@H](O)COc1nsnc1N1CCOCC1` [Timolol maleate salt] the value was 109%.
For `CC(C)(C)NC[C@H](O)COc1nsnc1N1CCOCC1` [Timolol (S)], for the setting “compound concentration: 3 uM”, the “HMGB1-induced TNF-alpha production” value worked out at 97.6%.
With `CC(C)(C)NC[C@H](O)COc1nsnc1N1CCOCC1` [S(-)-Timolol maleate], the “HMGB1-induced TNF-alpha production” value (compound concentration: 3 uM) was found to be 94.4%.
Take `C[C@]12CCC(=O)C=C1CC[C@@H]1[C@@H]2[C@@H](O)C[C@@]2(C)[C@H]1CC[C@]2(O)C(=O)COC(=O)CCC(=O)O` [hydrocortisone 21-hemisuccinate]: the “HMGB1-induced TNF-alpha production” value under setting [1] was 54.7%.
`C[C@]12CCC(=O)C=C1CC[C@@H]1[C@@H]2[C@@H](O)C[C@@]2(C)[C@H]1CC[C@]2(O)C(=O)COC(=O)CCC(=O)O`: the “HMGB1-induced TNF-alpha production” value (compound concentration: 3 uM) came out at 66.8%.
On the same count and under the same terms, next, `c1ccc2c(c1)CCC[C@H]2Nc1nc2ccccc2[nH]1` [NS8593 hydrochloride]: 81%; `O=C(Nc1cccc2c(=O)cc(-c3nnn[nH]3)oc12)c1ccc(OCCCCc2ccccc2)cc1` [Pranlukast]: 80.2 ± 0.87%.
`COc1cc(-c2oc3c(OC)c(O)cc(O)c3c(=O)c2O)ccc1O` [Limocitrin]: under setting [1], the “HMGB1-induced TNF-alpha production” value turned out to be 79.1%.
On to `CCOC(=O)[C@H](CCc1ccccc1)N[C@H]1CCc2ccccc2N(CC(=O)O)C1=O` [Benazepril HCl], for which, under “compound concentration: 3 uM”, the “HMGB1-induced TNF-alpha production” value came out at 106%.
As for `C=CCN1CCc2cc(O)c(O)cc2C(c2ccccc2)C1` (racemic), the “HMGB1-induced TNF-alpha production” value (compound concentration: 3 uM) stood at 113%.
Turning to `O=C1CCC(c2ccc(-n3ccnc3)cc2)=NN1` [Imazodan], the “HMGB1-induced TNF-alpha production” value (compound concentration: 3 uM) was found to be 96.6%.
For the compound `COC1=C(OC)C(=O)C(CCCCCCCCCCO)=C(C)C1=O`, the “HMGB1-induced TNF-alpha production” value (compound concentration: 3 uM) amounted to 81.7 ± 36%.
Same read-out and setting: next, `COC1=C(OC)C(=O)C(CCCCCCCCCCO)=C(C)C1=O` [Idebenone]: 75.8 ± 7.6%; `CCNC(=O)N1CCN(CCCC(c2ccc(F)cc2)c2ccc(F)cc2)CC1` [Amperozide hydrochloride]: 84.2%; `Fc1ccc(C(OCCCc2cnc[nH]2)c2ccc(F)cc2)cc1`: 96.7%.
Same read-out and setting: for `NCC(O)c1ccc(O)c(O)c1` (racemic) [(±)-Norepinephrine (+)bitartrate] the value was 61%; for `NC(CCCP(=O)(O)O)C(=O)O` (racemic) [(±)-2-Amino-5-phosphonopentanoic acid], 78.7%.
Same read-out and setting: for `CCOC(=O)OC(C)OC(=O)[C@@H]1N2C(=O)[C@@H](NC(=O)[C@H](N)c3ccccc3)[C@H]2SC1(C)C` (stereo not given in full) [Bacampicillin hydrochloride] the value was 78.8%; for `CCOC(=O)OC(C)OC(=O)[C@@H]1N2C(=O)[C@@H](NC(=O)[C@H](N)c3ccccc3)[C@H]2SC1(C)C` (stereo not given in full), 87.4%.
Take `Nc1nc(F)nc2c1ncn2[C@@H]1O[C@H](CO)[C@@H](O)[C@@H]1O` [Fludarabine]: for the setting “compound concentration: 3 uM”, the “HMGB1-induced TNF-alpha production” value was 121%.
For the compound `Nc1nc2c(c(=O)[nH]1)N=C(CNc1ccc(C(=O)N[C@@H](CCC(=O)O)C(=O)O)cc1)CN2` [Dihydrofolic acid, 90%], under setting [1], the “HMGB1-induced TNF-alpha production” value turned out to be 72.9%.
As for `CCc1cccc(N(C)C(=N)Nc2cccc3ccccc23)c1`, the “HMGB1-induced TNF-alpha production” value (compound concentration: 3 uM) is 80.5%.
For `CN1CCc2cc3c(cc2C(=O)Cc2ccc4c(c2C1)OCO4)OCO3` [Protopine], the “HMGB1-induced TNF-alpha production” value under setting [1] was determined as 66.2%.
For the compound `CC[C@H]1OC(=O)[C@H](C)[C@@H](O[C@H]2C[C@@](C)(OC)[C@@H](O)[C@H](C)O2)[C@H](C)[C@@H](O[C@@H]2O[C@H](C)C[C@H](N(C)C)[C@H]2O)[C@](C)(O)C[C@@H](C)/C(=N\OCOCCOC)[C@H](C)[C@@H](O)[C@]1(C)O`, for the setting “compound concentration: 3 uM”, the “HMGB1-induced TNF-alpha production” value was 64.4%.
The same measure, in the same setting: for `CC[C@H]1OC(=O)[C@H](C)[C@@H](O[C@H]2C[C@@](C)(OC)[C@@H](O)[C@H](C)O2)[C@H](C)[C@@H](O[C@@H]2O[C@H](C)C[C@H](N(C)C)[C@H]2O)[C@](C)(O)C[C@@H](C)/C(=N\OCOCCOC)[C@H](C)[C@@H](O)[C@]1(C)O` [Roxithromycin] the value was 103 ± 5.7%; for `O=C([O-])[C@H]1/C(=C/CO)O[C@@H]2CC(=O)N21.[Li+]`, 95.1%.
In the case of `CC(C)C[C@H](NC(=O)[C@@H](Cc1c[nH]c2ccccc12)NC(=O)[C@H](Cc1ccc(O)cc1)NC(=O)[C@H](CO)NC(=O)[C@H](Cc1c[nH]c2ccccc12)NC(=O)[C@H](Cc1c[nH]cn1)NC(=O)[C@@H]1CCC(=O)N1)C(=O)N[C@@H](CCCNC(=N)N)C(=O)N1CCC[C@H]1C(=O)NCC(N)=O` [Triptorelin], the “HMGB1-induced TNF-alpha production” value (compound concentration: 3 uM) was found to be 87.1%.
Same read-out and setting: for `CC(=O)N[C@@H](CC(C)C)C(=O)O` [N-Acetyl-L-leucine] the value was 107%.
As for `CC(=O)N[C@@H](CC(C)C)C(=O)O`, where the note is “compound concentration: 3 uM”, the “HMGB1-induced TNF-alpha production” value was 80%.
Turning to `Nc1nc(=O)c2nc(CNc3ccc(C(=O)N[C@@H](CCC(=O)O)C(=O)O)cc3)cnc2[nH]1`, for the setting “compound concentration: 3 uM”, the “HMGB1-induced TNF-alpha production” value came out at 75.6%.
In the case of `Nc1nc(=O)c2nc(CNc3ccc(C(=O)N[C@@H](CCC(=O)O)C(=O)O)cc3)cnc2[nH]1` [Folic acid], the “HMGB1-induced TNF-alpha production” value (compound concentration: 3 uM) came out at 112%.
Same read-out and setting: for `C=C1CC[C@H](O)C/C1=C/C=C1\CCC[C@]2(C)[C@@H]([C@H](C)CCCC(C)(C)O)CC[C@@H]12` [Calcifediol] the value was 79.5%; for `CC(N)=O` [Acetamide], 96.1%.
On to `Cc1ccc2oc(=O)c(-c3ccc(O)cc3)c(C)c2c1` [4,6-Dimethyl-3(4'-hydroxyphenyl)coumarin], for which, under setting [1], the “HMGB1-induced TNF-alpha production” value stood at 69.9%.
Take `Nc1nc(Cl)nc2c1ncn2[C@@H]1O[C@H](CO)[C@@H](O)[C@@H]1F` [Clofarabine]: under “compound concentration: 3 uM”, the “HMGB1-induced TNF-alpha production” value worked out at 121%.
In the case of `O=C1CN2Cc3c(ccc(Cl)c3Cl)N=C2N1`, the “HMGB1-induced TNF-alpha production” value (compound concentration: 3 uM) was 110% and 91.1%.
